Patent US10258664B2, “Methods and compositions for treating pain” (MannKind Corporation, priority 2011, dated 2019)

Tested on: mice
Test: 55° C. warm-water tail withdrawal (tail-flick) assay
Assay type: in vivo, mouse
Details: intraperitoneal dose 10 mg/kg; AUC not further defined
Procedure: Antinociceptive effect was tested in a mouse tail-withdrawal (“tail-flick,” Aldrich et al. 2009) assay in which the tail of a restrained mouse is exposed to water at 55° C. […] Durations shorter than the maximum are reported as a percentage of the time limit. This tail-flick test (also known as the 55° C. warm-water tail withdrawal assay) is an industry acceptable, nonclinical model for assessing the efficacy of analgesics in treating acute pain. To test placebo effect, FDKP (TECHNOSPHERE®) powder (0.5 mg) without any peptide was used in the study. Each animal is tested for baseline tail-withdrawal latency prior to drug administration. Latency to withdraw the tail was subsequently measured in 10 minutes post-drug administration intervals as indicated. A maximum response time of 15 seconds was utilized to prevent tissue damage. Data reported as percent antinociception, as calculated by the following equation: % antinociception is equal to 100 times (test latency minus baseline latency) divided by (15 minus baseline latency).
The tetrapetide, (D)Phe-(D)Phe-(D)Nle-(D)Arg-NH2 (SEQ ID NO: 2, Compound 2) was administered to mice by intraperitoneal (i.p.) injection (3 mg/kg) in a saline solution, and by pulmonary insufflation of a dry powder formulation containing FDKP at various doses, 0.25 mg, 0.125 mg, 0.013 mg, 1.25 μg and 0.13 μg. […]

SMILES: CN1CC[C@]23c4c5ccc(O)c4O[C@H]2[C@@H](O)C=C[C@H]3[C@H]1C5 [morphine, reference compound]
- AUC: 6795
